In patent publication US5716929A (Vertex Pharmaceuticals, Inc., priority 1995, dated 1998):

Assay: general procedure: solution-phase peptide synthesis; EDC/HOBT
Details: late stage modification step

Row | Substance | step yield [%]
1 | (3S)t-Butyl N-(N-acetyl-(S)-(O-tert-butyl-tyrosinyl)-(S)-valinyl-(S)-alaninyl)-3-amino-4-(2-(7-methoxybenzoxazolyl))-4-oxobutanate | 100
2 | (3S)N-(N-Acetyl-(S)-tyrosinyl-(S)-valinyl-(S)-alaninyl)-3-amino-4-(2-(7-methoxybenzoxazolyl))-4-oxobutanoate | 83
3 | (3S)t-Butyl N-(N-acetyl-(S)-tyrosinyl-(S)-valinyl-(S)-alaninyl)-3-amino-4-(2-(4-methoxybenzoxazolyl))-4-oxobutanoate | 96
4 | N-(N-Acetyl-tyrosinyl-valinyl-(4(R)-allyloxyprolinyl))-3(S)-amino-4-oxobutanoic acid | 53
